# Measurements as given in the supplement of paper PMC6411743.
# ± gives the standard deviation of the averaged measurements. The list shows a part of the results.
# Columns and labels:
# Test in all cases: NP40-soluble protein abundance relative to vehicle (solubility fold change) (ratio); higher = more soluble protein in presence of GTP
# [1] = biological target: T1, UniProt Q8IWR0 and related entries
# T1 sequence (whole entry): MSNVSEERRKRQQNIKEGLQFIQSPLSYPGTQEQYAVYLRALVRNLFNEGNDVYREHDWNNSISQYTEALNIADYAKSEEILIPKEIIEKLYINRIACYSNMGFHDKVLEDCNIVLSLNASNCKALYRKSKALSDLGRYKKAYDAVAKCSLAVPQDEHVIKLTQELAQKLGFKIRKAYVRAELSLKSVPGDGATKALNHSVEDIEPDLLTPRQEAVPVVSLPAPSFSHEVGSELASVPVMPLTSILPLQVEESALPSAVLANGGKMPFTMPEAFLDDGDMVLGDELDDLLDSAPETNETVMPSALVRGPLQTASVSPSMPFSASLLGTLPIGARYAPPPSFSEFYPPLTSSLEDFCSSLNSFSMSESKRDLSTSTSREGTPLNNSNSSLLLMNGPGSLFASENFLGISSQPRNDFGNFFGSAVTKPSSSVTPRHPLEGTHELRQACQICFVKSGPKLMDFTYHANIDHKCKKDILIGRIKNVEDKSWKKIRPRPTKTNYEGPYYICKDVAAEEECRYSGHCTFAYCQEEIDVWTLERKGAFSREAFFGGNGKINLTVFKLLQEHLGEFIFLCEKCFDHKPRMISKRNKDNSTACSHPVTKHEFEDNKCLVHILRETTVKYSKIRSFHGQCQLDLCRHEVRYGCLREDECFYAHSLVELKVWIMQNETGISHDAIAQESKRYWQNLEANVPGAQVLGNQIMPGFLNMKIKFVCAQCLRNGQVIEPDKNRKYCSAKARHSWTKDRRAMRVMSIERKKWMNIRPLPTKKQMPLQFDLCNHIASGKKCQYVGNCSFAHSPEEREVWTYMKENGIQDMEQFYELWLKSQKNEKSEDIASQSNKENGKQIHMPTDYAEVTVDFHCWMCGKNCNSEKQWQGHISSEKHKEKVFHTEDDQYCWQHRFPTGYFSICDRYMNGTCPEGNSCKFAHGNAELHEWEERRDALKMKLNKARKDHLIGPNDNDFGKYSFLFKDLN
# In short: (§1)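 Across three independent experiments, values are fold changes against the detergent-processed vehicle for each replicate, based on vsn-normalised intensities. The samples were Jurkat crude lysate treated with eight concentrations (0.1 to 10 mM) for 10 min at room temperature and then 3 min at 37 °C. Lysate was solubilised with 0.8% NP40 and benzonase, ultracentrifuged, and the supernatant analysed by TMT-labelled LC-MS/MS.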
# UniProt Q8N0Z3 = biological target: T2, UniProt Q8N0Z3
# T2 sequence (whole entry): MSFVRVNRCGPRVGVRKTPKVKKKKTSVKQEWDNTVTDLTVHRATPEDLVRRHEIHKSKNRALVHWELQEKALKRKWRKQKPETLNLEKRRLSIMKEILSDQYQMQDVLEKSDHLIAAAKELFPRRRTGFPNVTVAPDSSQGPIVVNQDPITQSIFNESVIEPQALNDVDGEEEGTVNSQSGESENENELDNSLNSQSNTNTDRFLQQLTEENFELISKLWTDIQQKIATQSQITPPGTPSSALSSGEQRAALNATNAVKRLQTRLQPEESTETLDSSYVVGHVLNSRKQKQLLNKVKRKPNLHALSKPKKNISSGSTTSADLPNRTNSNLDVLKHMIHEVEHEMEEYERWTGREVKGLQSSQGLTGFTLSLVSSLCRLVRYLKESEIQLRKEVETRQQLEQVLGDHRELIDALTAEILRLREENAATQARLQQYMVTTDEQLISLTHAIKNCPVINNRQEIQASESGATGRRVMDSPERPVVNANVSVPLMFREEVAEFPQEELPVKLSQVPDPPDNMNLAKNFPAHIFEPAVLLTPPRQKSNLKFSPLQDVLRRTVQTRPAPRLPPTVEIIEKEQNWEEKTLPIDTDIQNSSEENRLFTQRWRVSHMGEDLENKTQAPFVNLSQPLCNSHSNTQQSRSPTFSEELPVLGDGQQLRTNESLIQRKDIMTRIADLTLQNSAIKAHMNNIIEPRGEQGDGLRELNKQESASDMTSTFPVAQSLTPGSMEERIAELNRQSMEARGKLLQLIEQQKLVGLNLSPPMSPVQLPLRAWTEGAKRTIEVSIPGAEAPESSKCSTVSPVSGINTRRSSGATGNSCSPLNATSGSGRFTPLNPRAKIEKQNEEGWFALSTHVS
# In short: as §1
# [2] = biological target: T3, UniProt Q8N1G0 and related entries
# T3 sequence (whole entry): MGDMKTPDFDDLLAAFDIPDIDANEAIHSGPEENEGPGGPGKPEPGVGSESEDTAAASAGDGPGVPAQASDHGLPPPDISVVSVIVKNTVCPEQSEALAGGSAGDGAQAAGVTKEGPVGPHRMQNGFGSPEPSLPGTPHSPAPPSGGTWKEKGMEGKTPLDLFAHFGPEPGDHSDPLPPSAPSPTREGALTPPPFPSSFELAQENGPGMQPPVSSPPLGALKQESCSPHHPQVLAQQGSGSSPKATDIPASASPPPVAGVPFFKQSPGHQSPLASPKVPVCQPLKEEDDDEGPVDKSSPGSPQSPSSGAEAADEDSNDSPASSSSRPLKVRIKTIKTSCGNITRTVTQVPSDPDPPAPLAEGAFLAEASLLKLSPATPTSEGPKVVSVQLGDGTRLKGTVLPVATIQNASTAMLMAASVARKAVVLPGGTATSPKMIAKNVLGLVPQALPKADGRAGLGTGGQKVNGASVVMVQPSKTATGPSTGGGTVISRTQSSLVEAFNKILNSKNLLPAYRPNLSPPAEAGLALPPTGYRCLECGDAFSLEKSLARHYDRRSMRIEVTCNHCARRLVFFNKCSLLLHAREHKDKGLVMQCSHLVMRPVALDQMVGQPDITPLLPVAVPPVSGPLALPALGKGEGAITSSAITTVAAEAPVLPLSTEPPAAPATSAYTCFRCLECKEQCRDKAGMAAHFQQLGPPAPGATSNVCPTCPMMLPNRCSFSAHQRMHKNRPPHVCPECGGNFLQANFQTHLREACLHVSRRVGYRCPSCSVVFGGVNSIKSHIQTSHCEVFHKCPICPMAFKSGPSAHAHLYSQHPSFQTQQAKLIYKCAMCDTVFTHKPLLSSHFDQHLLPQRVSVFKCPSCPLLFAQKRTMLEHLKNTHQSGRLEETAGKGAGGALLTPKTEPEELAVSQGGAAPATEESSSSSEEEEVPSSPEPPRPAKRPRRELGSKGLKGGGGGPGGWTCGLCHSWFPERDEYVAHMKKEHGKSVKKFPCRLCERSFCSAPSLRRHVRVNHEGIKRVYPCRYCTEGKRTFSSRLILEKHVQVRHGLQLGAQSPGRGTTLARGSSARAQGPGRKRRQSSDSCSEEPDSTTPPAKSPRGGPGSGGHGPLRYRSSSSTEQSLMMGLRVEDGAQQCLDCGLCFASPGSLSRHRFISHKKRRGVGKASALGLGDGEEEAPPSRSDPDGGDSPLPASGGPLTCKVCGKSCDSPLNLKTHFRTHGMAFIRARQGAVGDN
# In short: as §1
# [3] = biological target: T4, UniProt Q8N4Q1 and related entries
# T4 sequence (whole entry): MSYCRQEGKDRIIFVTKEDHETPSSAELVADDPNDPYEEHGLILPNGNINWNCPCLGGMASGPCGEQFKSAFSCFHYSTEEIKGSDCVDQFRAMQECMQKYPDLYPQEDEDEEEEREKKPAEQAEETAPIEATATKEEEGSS
# In short: as §1
# [4] = biological target: T5, UniProt Q8N573 and related entries
# T5 sequence (whole entry): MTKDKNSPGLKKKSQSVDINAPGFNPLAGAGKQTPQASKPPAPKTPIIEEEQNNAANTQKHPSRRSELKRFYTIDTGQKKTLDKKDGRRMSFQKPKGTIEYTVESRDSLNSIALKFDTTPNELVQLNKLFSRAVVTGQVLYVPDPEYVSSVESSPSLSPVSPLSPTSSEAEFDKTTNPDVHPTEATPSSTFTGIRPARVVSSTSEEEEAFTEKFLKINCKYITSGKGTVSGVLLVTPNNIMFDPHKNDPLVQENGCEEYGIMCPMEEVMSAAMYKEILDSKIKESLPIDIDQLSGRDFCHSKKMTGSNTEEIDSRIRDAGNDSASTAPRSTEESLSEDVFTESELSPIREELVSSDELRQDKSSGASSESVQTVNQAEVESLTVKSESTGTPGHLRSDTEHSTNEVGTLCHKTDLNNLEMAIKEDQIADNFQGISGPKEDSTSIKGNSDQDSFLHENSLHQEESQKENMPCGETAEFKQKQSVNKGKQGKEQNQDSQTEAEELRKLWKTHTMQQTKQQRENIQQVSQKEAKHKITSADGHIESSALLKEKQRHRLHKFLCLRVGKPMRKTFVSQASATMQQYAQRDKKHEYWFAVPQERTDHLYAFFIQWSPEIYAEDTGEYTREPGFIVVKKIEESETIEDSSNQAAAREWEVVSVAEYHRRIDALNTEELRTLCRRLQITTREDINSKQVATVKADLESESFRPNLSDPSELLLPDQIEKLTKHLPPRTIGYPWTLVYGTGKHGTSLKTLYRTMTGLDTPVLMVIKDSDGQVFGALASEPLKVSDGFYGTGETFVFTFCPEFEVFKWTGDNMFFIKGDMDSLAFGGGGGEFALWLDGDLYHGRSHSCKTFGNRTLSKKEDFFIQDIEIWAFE
# In short: as §1
# [5] = biological target: T6, UniProt Q8N5A5 and related entries
# T6 sequence (whole entry): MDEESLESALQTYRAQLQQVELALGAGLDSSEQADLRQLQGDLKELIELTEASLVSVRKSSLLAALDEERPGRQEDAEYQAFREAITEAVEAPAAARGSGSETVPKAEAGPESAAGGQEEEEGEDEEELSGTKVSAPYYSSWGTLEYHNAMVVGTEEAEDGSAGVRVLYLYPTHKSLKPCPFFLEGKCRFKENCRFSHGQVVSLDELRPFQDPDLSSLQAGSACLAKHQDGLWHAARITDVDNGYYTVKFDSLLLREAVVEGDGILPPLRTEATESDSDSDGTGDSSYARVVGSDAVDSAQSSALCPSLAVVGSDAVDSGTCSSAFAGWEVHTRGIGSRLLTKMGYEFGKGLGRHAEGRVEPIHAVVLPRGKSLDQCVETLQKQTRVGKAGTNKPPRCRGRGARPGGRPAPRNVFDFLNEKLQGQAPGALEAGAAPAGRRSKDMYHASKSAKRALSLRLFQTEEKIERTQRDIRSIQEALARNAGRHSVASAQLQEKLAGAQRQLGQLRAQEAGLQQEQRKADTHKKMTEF
# In short: as §1
structure (smiles),measurement,setting,value
Nc1nc2c(ncn2[C@@H]2O[C@H](COP(=O)(O)OP(=O)(O)OP(=O)(O)O)[C@@H](O)[C@H]2O)c(=O)[nH]1 [guanosine triphosphate],NP40-soluble protein abundance,[1]; concentration: 4mM,1.16 ± 0.076
same,NP40-soluble protein abundance,[1]; concentration: 6mM,1.13 ± 0.039
same,NP40-soluble protein abundance,[1]; concentration: 8mM,1.14 ± 0.064
same,NP40-soluble protein abundance,[1]; concentration: 10mM,1.12 ± 0.028
same,NP40-soluble protein abundance,UniProt Q8N0Z3; concentration: 0.1mM,1.02 ± 0.077
same,NP40-soluble protein abundance,UniProt Q8N0Z3; concentration: 0.5mM,0.957 ± 0.066
same,NP40-soluble protein abundance,UniProt Q8N0Z3; concentration: 1mM,0.992 ± 0.038
same,NP40-soluble protein abundance,UniProt Q8N0Z3; concentration: 2mM,0.979 ± 0.04
same,NP40-soluble protein abundance,UniProt Q8N0Z3; concentration: 4mM,0.932 ± 0.059
same,NP40-soluble protein abundance,UniProt Q8N0Z3; concentration: 6mM,0.994 ± 0.1
same,NP40-soluble protein abundance,UniProt Q8N0Z3; concentration: 8mM,0.954 ± 0.075
same,NP40-soluble protein abundance,UniProt Q8N0Z3; concentration: 10mM,0.962 ± 0.026
same,NP40-soluble protein abundance,[2]; concentration: 0.1mM,1.06 ± 0.1
same,NP40-soluble protein abundance,[2]; concentration: 0.5mM,1.07 ± 0.095
same,NP40-soluble protein abundance,[2]; concentration: 1mM,1.16 ± 0.2
same,NP40-soluble protein abundance,[2]; concentration: 2mM,1.13 ± 0.16
same,NP40-soluble protein abundance,[2]; concentration: 4mM,1.16 ± 0.31
same,NP40-soluble protein abundance,[2]; concentration: 6mM,1.13 ± 0.2
same,NP40-soluble protein abundance,[2]; concentration: 8mM,1.25 ± 0.27
same,NP40-soluble protein abundance,[2]; concentration: 10mM,1.15 ± 0.28
same,NP40-soluble protein abundance,[3]; concentration: 0.1mM,0.911 ± 0.013
same,NP40-soluble protein abundance,[3]; concentration: 0.5mM,0.975 ± 0.083
same,NP40-soluble protein abundance,[3]; concentration: 1mM,1.065 ± 0.0097
same,NP40-soluble protein abundance,[3]; concentration: 2mM,1.01 ± 0.08
same,NP40-soluble protein abundance,[3]; concentration: 4mM,0.991 ± 0.078
same,NP40-soluble protein abundance,[3]; concentration: 6mM,1.02 ± 0.072
same,NP40-soluble protein abundance,[3]; concentration: 8mM,1.08 ± 0.065
same,NP40-soluble protein abundance,[3]; concentration: 10mM,1.1 ± 0.077
same,NP40-soluble protein abundance,[4]; concentration: 0.1mM,0.964 ± 0.12
same,NP40-soluble protein abundance,[4]; concentration: 0.5mM,0.904 ± 0.1
same,NP40-soluble protein abundance,[4]; concentration: 1mM,0.949 ± 0.13
same,NP40-soluble protein abundance,[4]; concentration: 2mM,0.935 ± 0.12
same,NP40-soluble protein abundance,[4]; concentration: 4mM,0.919 ± 0.17
same,NP40-soluble protein abundance,[4]; concentration: 6mM,0.887 ± 0.19
same,NP40-soluble protein abundance,[4]; concentration: 8mM,0.844 ± 0.13
same,NP40-soluble protein abundance,[4]; concentration: 10mM,0.906 ± 0.16
same,NP40-soluble protein abundance,[5]; concentration: 0.1mM,1.1 ± 0.064
same,NP40-soluble protein abundance,[5]; concentration: 0.5mM,1.07 ± 0.076
same,NP40-soluble protein abundance,[5]; concentration: 1mM,1.07 ± 0.068
same,NP40-soluble protein abundance,[5]; concentration: 2mM,1.12 ± 0.039
same,NP40-soluble protein abundance,[5]; concentration: 4mM,1.11 ± 0.081
same,NP40-soluble protein abundance,[5]; concentration: 6mM,1.08 ± 0.065

# For convenience, part of the list above.
structure (smiles),measurement,setting,value
Nc1nc2c(ncn2[C@@H]2O[C@H](COP(=O)(O)OP(=O)(O)OP(=O)(O)O)[C@@H](O)[C@H]2O)c(=O)[nH]1 [guanosine triphosphate],NP40-soluble protein abundance,[5]; concentration: 4mM,1.11 ± 0.081
same,NP40-soluble protein abundance,[5]; concentration: 6mM,1.08 ± 0.065
